Results deposited as PubChem BioAssay AID504784 (Drosophila RNAi Screening Center, 2011)

Test: 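Fly genes whose silencing alters how much lipid cells keep in droplets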 (primary screen)
Cells: Drosophila Kc167 embryonic cells
Knock-down reagent: long dsRNA against Drosophila genes, about 250 ng dsRNA per well
Timing: 4 days
Challenge: cells fed 400 µM oleic acid bound to BSA
Read-out: 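Cells imaged and segmented; ratio of lipid droplet area to nuclear area, log-transformed, then normalised as a B-score over the screen; higher means more stored lipid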
Scale: droplet/nuclear area B-score: higher = more stored lipid (overstorage)
In all, the deposit lists about 17,000 reagents; this is a random part of those that have a named target and a result. 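Each column is one replicate's B-score; the combined score over replicates was not deposited, so single values may mislead.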 Reagents against one gene are numbered here. Names joined by + are all predicted targets of the reagent. Reagent sequences are not shown.

gene,dsRNA no.,"droplet/nuclear area B-score, replicate 1","droplet/nuclear area B-score, replicate 2","droplet/nuclear area B-score, replicate 3"
Fur1 (Furin 1),1,-1.09,0.0391,
Fur1 (Furin 1),2,-1.11,0.681,
CG18135,1,-2.87,-0.783,0.0719
CG7443,1,-0.502,-1.16,
Dnali1 (Dynein axonemal light intermediate chain 1),1,0.0451,0.139,
aln (allnighter),1,-0.102,-0.128,
Orc4 (Origin recognition complex subunit 4),1,-2.58,-0.758,
Sytbeta (Synaptotagmin beta),1,-0.368,0.217,
Sytbeta (Synaptotagmin beta),2,0.221,1.17,
Pdcd4 (Programmed cell death 4),1,2.2,1.01,
DJ-1alpha,1,-0.0994,-0.683,
tld (tolloid),1,3.47,-0.161,
CG11060,1,-0.0764,-0.11,
CG18622,1,0.361,-0.0472,
Vha55 (Vacuolar H[+]-ATPase 55kD subunit),1,0.959,0.958,
fs(1)N (female sterile (1) Nasrat),1,0.495,-0.0388,
Gapvd1 (GTPase activating protein and VPS9 domains 1),1,1.84,-1.61,4.64
CG2604,1,0.139,0.581,
CG5056,1,-0.604,0.315,
5-HT1A (5-hydroxytryptamine (serotonin) receptor 1A),1,-0.0428,-0.355,
Naa35 (N(alpha)-acetyltransferase 35),1,0.804,2.23,
Unc-115a (Uncoordinated 115a),1,-0.0845,-0.673,
CG8833,1,-1.8,1.36,0.749
CG30376,1,-1.35,0.0647,
NP15.6,1,1.19,-0.839,
Fib (Fibrillarin),1,-0.0475,-2.49,
CR18275 + CG13373,1,-0.317,-0.154,
Cpr67Fa2 (Cuticular protein 67Fa2),1,0.133,0.653,
CG40298,1,0.409,3.47,
CG32196,1,0.191,-0.0769,
CG43658,1,-0.052,0.842,
fry (furry),1,0.0458,3.03,
fry (furry),2,-0.13,-0.457,
fry (furry),3,0.169,-0.824,
fry (furry),4,1.18,1.12,
Bap55 (Brahma associated protein 55kD),1,-1.23,2.26,
tw (twisted),1,-0.407,,
CG42534,1,1.17,-0.877,
CG42534,2,1.63,1.84,
CG42534,3,1.11,-1.26,
CG42534,4,-0.231,0.457,
CG42534,5,0.432,-0.937,
CG8746,1,1.65,1.05,
Vm34Ca (Vitelline membrane 34Ca),1,0.334,-0.335,
Ama (Amalgam),1,-0.0151,0.276,
CG14294,1,1.24,-0.111,
Dlg5 (Discs large 5),1,-2.03,-2.54,
snRNP-U1-70K (small ribonucleoprotein particle U1 subunit 70K),1,-2.13,0.249,0.662
snRNP-U1-70K (small ribonucleoprotein particle U1 subunit 70K),2,6.64,-3.64,

As entered above:
Naa35 (N(alpha)-acetyltransferase 35), droplet/nuclear area B-score, replicate 2 → 2.23
For “droplet/nuclear area B-score, replicate 3”, Gapvd1 (GTPase activating protein and VPS9 domains 1) shows 4.64
tw (twisted), droplet/nuclear area B-score, replicate 1 = -0.407
Entry of fry (furry) #1 in “droplet/nuclear area B-score, replicate 2”: 3.03
CG5056, droplet/nuclear area B-score, replicate 1 = -0.604
CG2604, droplet/nuclear area B-score, replicate 1 = 0.139

More results:
gene,dsRNA no.,"droplet/nuclear area B-score, replicate 1","droplet/nuclear area B-score, replicate 2","droplet/nuclear area B-score, replicate 3"
CG12520,1,-1.3,-0.439,
CG5693,1,-1.15,-1.17,
CG42540,1,1.62,15.5,
CG42540,2,0.0288,1.88,
CG42540,3,0.196,3.87,
CG42540,4,-0.918,0.0119,
RhoGDI,1,0.217,-1.13,1.27
Fatp3 (Fatty acid transport protein 3),1,1.34,-0.667,
Cyp4d8 (Cytochrome P450 4d8),1,1.45,2.67,
CG14102,1,0.128,,
bsf (bicoid stability factor),1,0.0367,-0.902,
Git (G protein-coupled receptor kinase interacting ArfGAP),1,-2.14,0.465,
yki (yorkie),1,-1.16,-1.72,
Cpsf5 (Cleavage and polyadenylation specific factor 5),1,-0.697,-0.469,
Dhpr (Dihydropteridine reductase),1,-0.591,-0.303,
CG1603,1,-1.35,-2.6,
Mical (Molecule interacting with CasL),1,-0.0643,0.239,
Mical (Molecule interacting with CasL),2,1.43,0.546,
Mical (Molecule interacting with CasL),3,-0.294,0.106,
Mical (Molecule interacting with CasL),4,-0.0274,-0.625,
Obp49a (Odorant-binding protein 49a),1,1.01,0.911,
AQP (aquaporin),1,-0.904,0.0245,
CG7860,1,0.447,1.06,1.11
Trp1 (Translocation protein 1),1,1.33,1.35,
fs(1)Ya (female sterile (1) Young arrest),1,3.9,1.69,
fs(1)Ya (female sterile (1) Young arrest),2,-2.02,-1.17,
Pop4 (POP4 ribonuclease P/MRP subunit),1,-0.186,-1.41,
Vps53 (Vacuolar protein sorting 53),1,0.312,-0.298,
CG9849,1,-0.0119,-0.0597,
CG10333,1,-0.796,0.532,
CG1146,1,0.525,0.368,
CG1850,1,-1.48,0.175,
Tomosyn,1,-0.391,-1.5,0.288
Tomosyn,2,1.39,0.0445,-0.572
Tomosyn,3,-0.492,0.303,-1.05
Tomosyn,4,1.54,1.26,-0.822
